Data taken from the supplement of paper PMC12819154, “High-throughput peptide-centric local stability assay extends protein–ligand identification to membrane proteins, tissues and bacteria” (Nature Structural & Molecular Biology, 2025).
The list shows a part of the results. Small differences around the control level are noise.

By UniProt entry, the sequences of proteins in these tests, tags left out. Where a name states a change or a piece, a line headed by the entry shows the natural chain unless it says otherwise.
UniProt P38936, whole entry: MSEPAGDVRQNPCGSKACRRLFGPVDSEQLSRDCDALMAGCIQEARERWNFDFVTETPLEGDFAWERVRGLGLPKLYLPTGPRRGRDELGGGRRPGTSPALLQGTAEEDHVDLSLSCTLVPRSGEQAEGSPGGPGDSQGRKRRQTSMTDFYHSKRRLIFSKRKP
UniProt P42768: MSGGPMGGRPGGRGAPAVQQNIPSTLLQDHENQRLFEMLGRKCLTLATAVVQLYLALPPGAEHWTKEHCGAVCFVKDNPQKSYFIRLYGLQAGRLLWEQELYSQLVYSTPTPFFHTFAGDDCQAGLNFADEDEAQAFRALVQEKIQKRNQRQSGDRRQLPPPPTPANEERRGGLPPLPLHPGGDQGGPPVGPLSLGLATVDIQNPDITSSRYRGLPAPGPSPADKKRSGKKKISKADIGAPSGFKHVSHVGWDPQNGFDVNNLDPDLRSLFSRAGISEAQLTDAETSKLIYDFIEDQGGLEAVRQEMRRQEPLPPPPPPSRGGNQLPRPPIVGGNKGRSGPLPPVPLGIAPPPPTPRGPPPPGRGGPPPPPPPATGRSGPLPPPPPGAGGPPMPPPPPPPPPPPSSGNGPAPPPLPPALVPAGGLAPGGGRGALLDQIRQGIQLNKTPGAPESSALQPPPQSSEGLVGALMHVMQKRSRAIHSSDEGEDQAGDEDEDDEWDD
UniProt P42694: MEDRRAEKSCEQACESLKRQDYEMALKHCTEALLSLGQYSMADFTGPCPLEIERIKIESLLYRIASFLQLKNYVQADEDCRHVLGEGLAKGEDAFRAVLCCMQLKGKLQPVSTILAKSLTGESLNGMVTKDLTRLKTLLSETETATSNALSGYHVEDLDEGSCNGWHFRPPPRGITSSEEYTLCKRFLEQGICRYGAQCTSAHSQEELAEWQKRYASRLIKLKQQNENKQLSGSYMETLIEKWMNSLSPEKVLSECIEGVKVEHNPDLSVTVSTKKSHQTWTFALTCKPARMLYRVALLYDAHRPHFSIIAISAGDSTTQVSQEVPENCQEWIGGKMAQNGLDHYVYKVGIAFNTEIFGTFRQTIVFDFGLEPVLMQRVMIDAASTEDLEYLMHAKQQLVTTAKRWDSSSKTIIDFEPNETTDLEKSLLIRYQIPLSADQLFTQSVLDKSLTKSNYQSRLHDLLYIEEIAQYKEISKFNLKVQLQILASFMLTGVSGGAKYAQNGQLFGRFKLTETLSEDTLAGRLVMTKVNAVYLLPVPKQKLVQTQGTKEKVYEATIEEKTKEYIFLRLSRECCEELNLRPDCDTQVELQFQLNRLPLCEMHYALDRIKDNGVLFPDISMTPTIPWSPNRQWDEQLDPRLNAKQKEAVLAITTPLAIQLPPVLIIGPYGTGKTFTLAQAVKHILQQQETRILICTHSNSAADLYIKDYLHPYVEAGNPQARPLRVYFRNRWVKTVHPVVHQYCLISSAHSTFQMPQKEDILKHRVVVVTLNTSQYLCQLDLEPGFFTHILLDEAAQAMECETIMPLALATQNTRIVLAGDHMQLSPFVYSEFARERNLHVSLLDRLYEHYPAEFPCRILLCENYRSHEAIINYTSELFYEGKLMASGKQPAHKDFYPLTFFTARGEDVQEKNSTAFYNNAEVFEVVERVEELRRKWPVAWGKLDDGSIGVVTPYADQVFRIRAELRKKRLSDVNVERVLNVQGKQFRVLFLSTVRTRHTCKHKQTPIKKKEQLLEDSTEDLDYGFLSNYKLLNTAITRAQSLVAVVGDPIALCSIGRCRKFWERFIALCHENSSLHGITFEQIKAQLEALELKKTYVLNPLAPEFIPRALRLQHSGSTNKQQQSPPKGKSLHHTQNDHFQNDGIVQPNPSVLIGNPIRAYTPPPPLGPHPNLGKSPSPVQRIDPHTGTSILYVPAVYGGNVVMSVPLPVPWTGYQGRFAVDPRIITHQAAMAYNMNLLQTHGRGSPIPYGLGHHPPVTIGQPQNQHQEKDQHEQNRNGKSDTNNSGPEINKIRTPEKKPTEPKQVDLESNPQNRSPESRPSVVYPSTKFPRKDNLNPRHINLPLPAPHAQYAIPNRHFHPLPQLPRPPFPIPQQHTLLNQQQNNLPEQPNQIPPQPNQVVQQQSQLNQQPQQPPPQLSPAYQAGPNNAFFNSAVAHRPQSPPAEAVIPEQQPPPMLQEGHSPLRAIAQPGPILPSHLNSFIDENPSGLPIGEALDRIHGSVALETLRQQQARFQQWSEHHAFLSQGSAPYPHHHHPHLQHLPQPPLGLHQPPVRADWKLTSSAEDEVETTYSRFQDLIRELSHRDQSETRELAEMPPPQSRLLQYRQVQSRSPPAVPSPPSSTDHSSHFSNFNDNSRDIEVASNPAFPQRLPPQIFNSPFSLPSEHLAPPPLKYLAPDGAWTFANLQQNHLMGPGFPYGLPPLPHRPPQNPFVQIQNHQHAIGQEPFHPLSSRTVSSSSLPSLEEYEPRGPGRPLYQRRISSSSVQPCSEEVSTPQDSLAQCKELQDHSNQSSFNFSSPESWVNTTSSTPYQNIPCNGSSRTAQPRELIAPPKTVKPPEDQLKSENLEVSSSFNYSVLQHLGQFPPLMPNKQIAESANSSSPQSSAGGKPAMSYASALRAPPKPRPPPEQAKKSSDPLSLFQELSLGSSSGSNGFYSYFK
UniProt P28331, whole entry: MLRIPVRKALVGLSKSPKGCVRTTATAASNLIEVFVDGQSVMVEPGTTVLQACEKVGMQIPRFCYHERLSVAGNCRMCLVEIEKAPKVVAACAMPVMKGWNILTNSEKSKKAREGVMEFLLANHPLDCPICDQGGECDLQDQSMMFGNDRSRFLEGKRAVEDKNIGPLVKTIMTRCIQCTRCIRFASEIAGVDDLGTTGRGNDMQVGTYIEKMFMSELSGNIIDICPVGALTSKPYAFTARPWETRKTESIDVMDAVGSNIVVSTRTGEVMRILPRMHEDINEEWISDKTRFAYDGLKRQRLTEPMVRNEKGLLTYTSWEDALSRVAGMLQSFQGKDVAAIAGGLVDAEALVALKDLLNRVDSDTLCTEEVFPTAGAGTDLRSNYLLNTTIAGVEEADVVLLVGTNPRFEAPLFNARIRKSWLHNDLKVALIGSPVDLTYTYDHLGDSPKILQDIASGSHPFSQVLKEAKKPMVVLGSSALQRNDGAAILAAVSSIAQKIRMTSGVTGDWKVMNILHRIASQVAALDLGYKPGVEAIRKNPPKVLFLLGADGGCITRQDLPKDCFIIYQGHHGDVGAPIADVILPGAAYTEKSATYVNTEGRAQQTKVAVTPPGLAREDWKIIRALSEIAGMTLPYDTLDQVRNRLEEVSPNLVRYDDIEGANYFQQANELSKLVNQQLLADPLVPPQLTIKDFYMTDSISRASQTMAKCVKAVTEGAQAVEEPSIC
UniProt P43366: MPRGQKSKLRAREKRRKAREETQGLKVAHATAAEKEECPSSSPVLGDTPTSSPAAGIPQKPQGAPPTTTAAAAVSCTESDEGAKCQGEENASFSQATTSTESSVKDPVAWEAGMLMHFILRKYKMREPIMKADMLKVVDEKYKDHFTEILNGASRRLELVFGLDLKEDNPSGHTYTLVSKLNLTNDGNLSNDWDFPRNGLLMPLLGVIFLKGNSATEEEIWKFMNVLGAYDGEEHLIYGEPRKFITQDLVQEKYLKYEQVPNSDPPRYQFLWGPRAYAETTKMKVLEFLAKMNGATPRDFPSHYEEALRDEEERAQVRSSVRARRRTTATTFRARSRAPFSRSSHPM
UniProt P43358: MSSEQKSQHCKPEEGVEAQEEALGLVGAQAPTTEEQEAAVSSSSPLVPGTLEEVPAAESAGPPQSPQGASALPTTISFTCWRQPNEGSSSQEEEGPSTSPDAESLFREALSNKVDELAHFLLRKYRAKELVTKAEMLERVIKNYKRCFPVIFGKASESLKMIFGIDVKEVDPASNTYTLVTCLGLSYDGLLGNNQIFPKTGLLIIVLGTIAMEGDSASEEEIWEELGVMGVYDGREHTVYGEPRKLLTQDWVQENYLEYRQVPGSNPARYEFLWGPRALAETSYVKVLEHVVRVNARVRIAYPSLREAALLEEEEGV
UniProt P35914: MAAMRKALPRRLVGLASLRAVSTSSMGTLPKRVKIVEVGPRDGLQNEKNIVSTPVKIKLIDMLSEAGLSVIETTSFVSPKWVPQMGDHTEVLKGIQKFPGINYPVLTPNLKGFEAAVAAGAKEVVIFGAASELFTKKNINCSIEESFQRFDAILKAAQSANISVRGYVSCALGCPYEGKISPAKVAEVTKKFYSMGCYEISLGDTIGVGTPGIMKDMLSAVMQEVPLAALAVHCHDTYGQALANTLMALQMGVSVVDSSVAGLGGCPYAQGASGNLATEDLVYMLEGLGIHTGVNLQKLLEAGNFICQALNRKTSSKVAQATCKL
UniProt P35221: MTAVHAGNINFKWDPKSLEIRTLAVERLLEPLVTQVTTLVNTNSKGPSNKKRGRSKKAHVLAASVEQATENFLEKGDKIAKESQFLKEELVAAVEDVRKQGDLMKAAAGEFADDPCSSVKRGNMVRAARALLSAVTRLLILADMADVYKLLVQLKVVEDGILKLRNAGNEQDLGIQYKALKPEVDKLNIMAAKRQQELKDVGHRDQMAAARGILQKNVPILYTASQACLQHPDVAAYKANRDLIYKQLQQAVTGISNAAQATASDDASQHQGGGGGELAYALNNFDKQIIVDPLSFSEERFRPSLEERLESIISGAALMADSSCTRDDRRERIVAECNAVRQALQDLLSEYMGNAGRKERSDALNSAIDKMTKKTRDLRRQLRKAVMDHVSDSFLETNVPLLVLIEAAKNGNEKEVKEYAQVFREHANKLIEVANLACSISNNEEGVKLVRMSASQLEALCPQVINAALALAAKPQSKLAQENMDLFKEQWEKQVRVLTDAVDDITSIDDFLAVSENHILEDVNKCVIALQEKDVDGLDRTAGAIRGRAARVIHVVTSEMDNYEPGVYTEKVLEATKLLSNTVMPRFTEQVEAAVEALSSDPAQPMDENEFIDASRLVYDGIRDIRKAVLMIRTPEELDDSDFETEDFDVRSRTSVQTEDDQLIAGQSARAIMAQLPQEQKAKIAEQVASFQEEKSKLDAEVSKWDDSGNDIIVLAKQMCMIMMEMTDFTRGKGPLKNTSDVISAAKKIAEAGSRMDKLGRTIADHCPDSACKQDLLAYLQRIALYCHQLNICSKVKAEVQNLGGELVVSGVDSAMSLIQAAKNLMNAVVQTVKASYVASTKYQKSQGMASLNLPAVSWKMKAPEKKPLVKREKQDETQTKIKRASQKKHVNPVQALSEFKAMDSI
UniProt P28340: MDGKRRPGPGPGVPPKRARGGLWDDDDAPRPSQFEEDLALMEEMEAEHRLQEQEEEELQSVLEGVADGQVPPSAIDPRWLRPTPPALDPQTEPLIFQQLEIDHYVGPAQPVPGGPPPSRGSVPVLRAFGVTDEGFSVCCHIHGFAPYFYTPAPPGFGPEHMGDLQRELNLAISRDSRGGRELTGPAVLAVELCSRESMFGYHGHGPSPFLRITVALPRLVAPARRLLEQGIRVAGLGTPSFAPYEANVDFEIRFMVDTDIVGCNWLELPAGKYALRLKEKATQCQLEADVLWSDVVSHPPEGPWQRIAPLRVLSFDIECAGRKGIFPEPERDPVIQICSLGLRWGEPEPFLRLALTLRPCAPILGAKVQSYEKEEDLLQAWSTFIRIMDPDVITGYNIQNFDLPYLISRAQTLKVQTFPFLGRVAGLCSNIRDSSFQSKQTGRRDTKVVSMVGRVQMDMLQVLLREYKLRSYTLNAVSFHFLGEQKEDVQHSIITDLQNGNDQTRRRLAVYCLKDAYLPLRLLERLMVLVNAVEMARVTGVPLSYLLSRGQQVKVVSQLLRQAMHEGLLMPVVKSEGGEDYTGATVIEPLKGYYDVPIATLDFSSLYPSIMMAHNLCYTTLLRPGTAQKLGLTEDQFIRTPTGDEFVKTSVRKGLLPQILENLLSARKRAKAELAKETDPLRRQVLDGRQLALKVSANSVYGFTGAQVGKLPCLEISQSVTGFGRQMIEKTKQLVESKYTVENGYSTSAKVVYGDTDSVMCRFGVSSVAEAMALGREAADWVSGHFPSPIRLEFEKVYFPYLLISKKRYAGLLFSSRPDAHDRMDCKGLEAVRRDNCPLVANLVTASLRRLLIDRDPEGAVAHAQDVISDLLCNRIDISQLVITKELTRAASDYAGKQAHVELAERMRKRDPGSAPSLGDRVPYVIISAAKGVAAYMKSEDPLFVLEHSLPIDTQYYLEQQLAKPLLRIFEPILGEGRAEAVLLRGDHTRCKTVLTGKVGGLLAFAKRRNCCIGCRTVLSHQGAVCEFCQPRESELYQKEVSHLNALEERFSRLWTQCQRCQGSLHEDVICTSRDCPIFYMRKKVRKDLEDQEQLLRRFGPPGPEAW

Each target was assayed with CN[C@@H]1C[C@H]2O[C@@](C)([C@@H]1OC)n1c3ccccc3c3c4c(c5c6ccccc6n2c5c31)C(=O)NC4 [staurosporine] (assay: log2 fold change of tryptic peptide abundance, ligand vs vehicle (limited proteolysis) (log2 ratio); higher = more trypsin-susceptible (destabilized)). Conditions: ligand concentration: 20 uM; sample: K562 cleared lysate; digestion: 4 min, 22 C (HT-PELSA RT4min, Orbitrap Astral).

Target | log2 fold change
UniProt P38936 (peptide sequence: LYLPTGPR, peptide start residue: 76) | 0.359
WAS (peptide sequence: ADIGAPSGFK, peptide start residue: 236) (UniProt P42768) | 0.167
HELZ (peptide sequence: SLTGESLNGMVTK, peptide start residue: 118) (UniProt P42694) | 0.329
NDUFS1 (peptide sequence: LEEVSPNLVR, peptide start residue: 646) (UniProt P28331) | -0.493
MAGEB1 (peptide sequence: MKVLEFLAK, peptide start residue: 286) (UniProt P43366) | -0.361
MAGEA4 (peptide sequence: YEFLWGPR, peptide start residue: 1067) (UniProt P43358) | 0.0361
HMGCL (peptide sequence: VAQATCKL, peptide start residue: 318) (UniProt P35914) | -0.196
CTNNA1 (peptide sequence: APEKKPLVK, peptide start residue: 863) (UniProt P35221) | 1.29
DNAJA1 (peptide sequence: ILEVHIDKGMKDGQK, peptide start residue: 207) (UniProt P31689) | 0.736
RPL22 (peptide sequence: SKITVTSEVPFSK, peptide start residue: 68) (UniProt P35268) | -0.102
POLD1 (peptide sequence: ESMFGYHGHGPSPFLR, peptide start residue: 196) (UniProt P28340) | 0.211
